Results as given in paper PMC5923263.
These are yes or no findings as the source states them, for the method shown. For some assays here: A result given as binding can be weak or reduced; the word gives no strength. Tags and fused reporters may be left off the sequences shown.

Assays:
[1] = biological target: T1, S-tagged TrxM_(C35S) (Synechocystis sp. PCC 6803) (UniProt P52231); experiment: mixed-disulfide trapping in an E. coli co-expression strain, non-reducing SDS-PAGE and immunoblot; as a1, but the soluble fraction was treated with 100 mM DTT before electrophoresis
T1 sequence: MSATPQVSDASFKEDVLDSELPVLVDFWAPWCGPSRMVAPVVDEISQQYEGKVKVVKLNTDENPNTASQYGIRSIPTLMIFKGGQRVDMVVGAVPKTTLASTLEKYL

[2] = biological target: T1, S-tagged TrxM_(C35S) (Synechocystis sp. PCC 6803); experiment: mixed-disulfide trapping in an E. coli co-expression strain, non-reducing SDS-PAGE and immunoblot; His-Sll1961 and S-tagged TrxM_(C35S) co-expressed in E. coli Origami2 (DE3); soluble protein fraction on non-reducing 12% SDS-PAGE; detected with anti His-tag antibody and S-protein; without …

Row | binding [2] | Substance | binding [1]
1 | binds | His-tagged Sll1961 (wild type) (Synechocystis sp. PCC 6803) | no binding (only with 100 mM DTT treatment)
2 | no binding | His-tagged Sll1961 C307A (Synechocystis sp. PCC 6803) | 
3 | binds | His-tagged Sll1961 C124A (Synechocystis sp. PCC 6803) | 
4 | binds | His-tagged Sll1961 C229A (Synechocystis sp. PCC 6803) | 
